PubChem BioAssay AID686938 – Drosophila RNAi Screening Center – 2013
The deposit covers about 23,000 reagents; this is an unselected part of those that have a named target and a result. Of all reagents, 75 (0.33%) got an active call. 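Raw plate signals without normalisation; calls rest on plate z-scores that were not deposited; ratio present for only 364 wells.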 The record does not give: the dose of the treatment.

Test: 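Knock-downs reducing store-operated calcium influx in Drosophila cells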 (primary screen)
System: Drosophila S2R+ cells
Knock-down reagent: long dsRNA against Drosophila genes, about 0.25 µg dsRNA per well, roughly 10,000 cells
Timing: 5 days of knock-down before the calcium assay
Treatment: thapsigargin (SERCA pump blocker) to empty calcium stores; entry signal taken 4 min after adding it
Detection: 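Duplicate raw fluo-4 intensities per well from a plate reader, at rest and four minutes after thapsigargin emptied calcium stores; entry-to-rest ratio filled for only some wells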
Reading the numbers: calcium entry signal: higher = stronger calcium signal after store depletion; entry to resting ratio: higher = more calcium entry relative to resting level; resting calcium signal: higher = higher resting calcium signal
Hit rule: 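Hit if the duplicate-averaged plate z-score for entry over resting signal is under −3; wells with weak total dye signal (Fmax z < −2) or more than 5 off-targets removed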
Calls: active = strongly reduced calcium entry; inactive = no strong reduction

ox (oxen) [DRSC07520] — calcium entry signal, replicate 1 (fluorescence units) = 3.95e7; calcium entry signal, replicate 2 (fluorescence units) = 3.23e7; resting calcium signal, replicate 1 (fluorescence units) = 2.12e7; resting calcium signal, replicate 2 (fluorescence units) = 1.47e7; activity call = inactive
Su(var)205 (Suppressor of variegation 205) [DRSC03446] — calcium entry signal, replicate 1 (fluorescence units) = 4.84e7; resting calcium signal, replicate 1 (fluorescence units) = 2.95e7; activity call = inactive
CG8260 [DRSC20098] — calcium entry signal, replicate 1 (fluorescence units) = 3.30e7; calcium entry signal, replicate 2 (fluorescence units) = 3.46e7; resting calcium signal, replicate 1 (fluorescence units) = 1.75e7; resting calcium signal, replicate 2 (fluorescence units) = 1.61e7; activity call = inactive
wda (will decrease acetylation) [DRSC15579] — calcium entry signal, replicate 1 (fluorescence units) = 4.46e7; calcium entry signal, replicate 2 (fluorescence units) = 3.75e7; resting calcium signal, replicate 1 (fluorescence units) = 2.34e7; resting calcium signal, replicate 2 (fluorescence units) = 1.86e7; activity call = inactive
wda (will decrease acetylation) [DRSC22351] — calcium entry signal, replicate 1 (fluorescence units) = 3.23e7; calcium entry signal, replicate 2 (fluorescence units) = 6.74e7; resting calcium signal, replicate 1 (fluorescence units) = 1.80e7; resting calcium signal, replicate 2 (fluorescence units) = 2.96e7; activity call = inactive
Pym (Partner of Y14 and Mago) [DRSC22492] — calcium entry signal, replicate 1 (fluorescence units) = 3.28e7; calcium entry signal, replicate 2 (fluorescence units) = 2.25e7; resting calcium signal, replicate 1 (fluorescence units) = 2.05e7; resting calcium signal, replicate 2 (fluorescence units) = 1.21e7; activity call = inactive
Pym (Partner of Y14 and Mago) [DRSC23017] — calcium entry signal, replicate 1 (fluorescence units) = 4.96e7; calcium entry signal, replicate 2 (fluorescence units) = 3.40e7; resting calcium signal, replicate 1 (fluorescence units) = 2.28e7; resting calcium signal, replicate 2 (fluorescence units) = 1.40e7; activity call = inactive
Cpr67B (Cuticular protein 67B) [DRSC10373] — calcium entry signal, replicate 1 (fluorescence units) = 4.31e7; calcium entry signal, replicate 2 (fluorescence units) = 3.91e7; resting calcium signal, replicate 1 (fluorescence units) = 3.04e7; resting calcium signal, replicate 2 (fluorescence units) = 1.62e7; activity call = inactive
p53 [DRSC17024] — calcium entry signal, replicate 1 (fluorescence units) = 5.35e7; calcium entry signal, replicate 2 (fluorescence units) = 4.19e7; resting calcium signal, replicate 1 (fluorescence units) = 2.41e7; resting calcium signal, replicate 2 (fluorescence units) = 1.95e7; activity call = inactive
CR9337 (pseudo) [DRSC03212] — calcium entry signal, replicate 1 (fluorescence units) = 3.13e7; resting calcium signal, replicate 1 (fluorescence units) = 1.59e7; activity call = inactive
GstE12 (Glutathione S transferase E12) [DRSC04047] — calcium entry signal, replicate 1 (fluorescence units) = 4.97e7; calcium entry signal, replicate 2 (fluorescence units) = 5.02e7; resting calcium signal, replicate 1 (fluorescence units) = 2.27e7; resting calcium signal, replicate 2 (fluorescence units) = 2.25e7; activity call = inactive
Drip [DRSC07405] — calcium entry signal, replicate 1 (fluorescence units) = 2.97e7; calcium entry signal, replicate 2 (fluorescence units) = 4.27e7; resting calcium signal, replicate 1 (fluorescence units) = 1.48e7; resting calcium signal, replicate 2 (fluorescence units) = 1.86e7; activity call = inactive
olf186-M [DRSC07657] — calcium entry signal, replicate 1 (fluorescence units) = 4.53e7; calcium entry signal, replicate 2 (fluorescence units) = 4.06e7; resting calcium signal, replicate 1 (fluorescence units) = 1.84e7; resting calcium signal, replicate 2 (fluorescence units) = 1.97e7; activity call = inactive
CG6435 [DRSC06987] — calcium entry signal, replicate 1 (fluorescence units) = 2.86e7; calcium entry signal, replicate 2 (fluorescence units) = 2.98e7; resting calcium signal, replicate 1 (fluorescence units) = 1.21e7; resting calcium signal, replicate 2 (fluorescence units) = 1.45e7; activity call = inactive
CG14401 [DRSC02385] — calcium entry signal, replicate 1 (fluorescence units) = 4.46e7; calcium entry signal, replicate 2 (fluorescence units) = 4.85e7; resting calcium signal, replicate 1 (fluorescence units) = 2.26e7; resting calcium signal, replicate 2 (fluorescence units) = 2.09e7; activity call = inactive
CG14401 [DRSC21710] — calcium entry signal, replicate 1 (fluorescence units) = 3.14e7; calcium entry signal, replicate 2 (fluorescence units) = 3.35e7; resting calcium signal, replicate 1 (fluorescence units) = 1.69e7; resting calcium signal, replicate 2 (fluorescence units) = 1.55e7; activity call = inactive
Fgop2 (Fibroblast growth factor receptor 1 oncogene partner 2) [DRSC02016] — calcium entry signal, replicate 1 (fluorescence units) = 2.75e7; resting calcium signal, replicate 1 (fluorescence units) = 1.91e7; activity call = inactive

Reformatted: results already given
gene,amplicon,"calcium entry signal, replicate 1 (fluorescence units)","calcium entry signal, replicate 2 (fluorescence units)",entry to resting ratio,"resting calcium signal, replicate 1 (fluorescence units)","resting calcium signal, replicate 2 (fluorescence units)",activity call
olf186-M,DRSC07657,4.53e7,4.06e7,,1.84e7,1.97e7,inactive
CG6435,DRSC06987,2.86e7,2.98e7,,1.21e7,1.45e7,inactive
CG14401,DRSC02385,4.46e7,4.85e7,,2.26e7,2.09e7,inactive

Additional reagents:
CG31548 [DRSC22640] — calcium entry signal, replicate 1 (fluorescence units) = 4.24e7; calcium entry signal, replicate 2 (fluorescence units) = 4.53e7; resting calcium signal, replicate 1 (fluorescence units) = 2.45e7; resting calcium signal, replicate 2 (fluorescence units) = 2.01e7; activity call = inactive
Ir11a (Ionotropic receptor 11a) [DRSC19699] — calcium entry signal, replicate 1 (fluorescence units) = 4.04e7; calcium entry signal, replicate 2 (fluorescence units) = 3.42e7; resting calcium signal, replicate 1 (fluorescence units) = 1.85e7; resting calcium signal, replicate 2 (fluorescence units) = 1.63e7; activity call = inactive
CG3792 [DRSC02725] — calcium entry signal, replicate 1 (fluorescence units) = 3.67e7; calcium entry signal, replicate 2 (fluorescence units) = 3.61e7; resting calcium signal, replicate 1 (fluorescence units) = 1.71e7; resting calcium signal, replicate 2 (fluorescence units) = 1.59e7; activity call = inactive
CG12991 [DRSC19511] — calcium entry signal, replicate 1 (fluorescence units) = 2.20e7; calcium entry signal, replicate 2 (fluorescence units) = 2.37e7; resting calcium signal, replicate 1 (fluorescence units) = 1.20e7; resting calcium signal, replicate 2 (fluorescence units) = 1.06e7; activity call = inactive
RYBP (Ring and YY1 Binding Protein) [DRSC04117] — calcium entry signal, replicate 1 (fluorescence units) = 3.65e7; resting calcium signal, replicate 1 (fluorescence units) = 1.96e7; activity call = inactive
atlas [DRSC04183] — calcium entry signal, replicate 1 (fluorescence units) = 2.37e7; calcium entry signal, replicate 2 (fluorescence units) = 2.29e7; resting calcium signal, replicate 1 (fluorescence units) = 1.36e7; resting calcium signal, replicate 2 (fluorescence units) = 1.13e7; activity call = inactive
Rpn13R (Regulatory particle non-ATPase 13-related) [DRSC18404] — calcium entry signal, replicate 1 (fluorescence units) = 3.27e7; calcium entry signal, replicate 2 (fluorescence units) = 3.22e7; resting calcium signal, replicate 1 (fluorescence units) = 1.62e7; resting calcium signal, replicate 2 (fluorescence units) = 1.52e7; activity call = inactive
CG10730 [DRSC02102] — calcium entry signal, replicate 1 (fluorescence units) = 2.56e7; calcium entry signal, replicate 2 (fluorescence units) = 3.41e7; resting calcium signal, replicate 1 (fluorescence units) = 1.23e7; resting calcium signal, replicate 2 (fluorescence units) = 1.60e7; activity call = inactive
CG14423 [DRSC17920] — calcium entry signal, replicate 1 (fluorescence units) = 5.76e7; calcium entry signal, replicate 2 (fluorescence units) = 5.23e7; entry to resting ratio = 1.9; resting calcium signal, replicate 1 (fluorescence units) = 2.99e7; resting calcium signal, replicate 2 (fluorescence units) = 2.33e7; activity call = inactive
Pep (Protein on ecdysone puffs) [DRSC11252] — calcium entry signal, replicate 1 (fluorescence units) = 3.14e7; calcium entry signal, replicate 2 (fluorescence units) = 3.97e7; resting calcium signal, replicate 1 (fluorescence units) = 1.59e7; resting calcium signal, replicate 2 (fluorescence units) = 2.95e7; activity call = inactive
